Reference: patent US20160089448A1, “POLYMERIC PRODRUG WITH A SELF-IMMOLATIVE LINKER” (Ascendis Pharma GmbH, priority 2004, published 2016)

Assay: MS analysis of buffer-released insulin
Format: physicochemical
Details: insulin released in buffer pH 7.4, FIG. 11

Substance	modification of released insulin (mass spectrum)
9b: mono-pegylated insulin with ester-linked masking group, from 8b and maleimide-PEG5k [Compound 9b]	no modification
Compound 9a: mono-pegylated insulin from 8a (NαA1-linker-insulin, pentanoyl masking group, no nucleophile) and maleimide-PEG5k; comparison, not part of invention	major side product
